This passage reports binding signal results from article PMC7819943, “Rice protein-binding microarrays: a tool to detect cis-acting elements near promoter regions in rice”.

Chains of the proteins cited; added tags and fusions are not shown.
UniProt Q0JBA9, entry or part of it: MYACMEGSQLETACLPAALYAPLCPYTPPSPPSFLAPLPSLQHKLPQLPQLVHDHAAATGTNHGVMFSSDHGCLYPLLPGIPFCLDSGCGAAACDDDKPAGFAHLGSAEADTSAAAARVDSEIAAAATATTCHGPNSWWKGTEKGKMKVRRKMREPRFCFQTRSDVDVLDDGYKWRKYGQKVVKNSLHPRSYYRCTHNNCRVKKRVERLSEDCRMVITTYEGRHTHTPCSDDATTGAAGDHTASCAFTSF

This is one part of the list.

This assay concerns the target OsWRKY34 (Oryza sativa, UniProt Q0JBA9 1-250). In words: protein-binding microarray (RPBM); PBS, 2% BSA, 51.3 ng/ul salmon testes DNA, 50 uM zinc acetate, 200 nM TF, 25 C, 1 h; high values mean tight binding. The conditions noted are these: protein: recombinant; tags: N-terminal polyhistidine and DsRed monomer fusion (pET32a); label: CyDye5-dUTP incorporated in the synthesized complementary strand; 3' TTTTT single-stranded linker to array surface; dsDNA, one strand shown. Put shortly: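 The binding signal is fluorescence intensity per array feature (arbitrary units). Readings came from an Axon 4000B scanner after a washed, 2% BSA-blocked, double-stranded custom Agilent array had been incubated for 1 h at 25 °C with 200 nM protein and 50 µM zinc acetate. The protein was a Ni–NTA-purified transcription factor fused N-terminally to polyhistidine and DsRed, expressed in E. coli BL21-CodonPlus.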
As to “TTTTTTTTTCTTAAATTCCTCCTGATCTCGTTCGGAACTTCGGAGTCACCTAGTGCAG”, the binding signal was 9970 fluorescence intensity (a.u.).
Next, “CTCTCCTCCACGCCCACCTCACCTGCCCCTGCGCCTCCGCCGGAGTCACCTAGTGCAG”: 8610 fluorescence intensity (a.u.); “TCTACAGCCTCTACACTCCGTCCTGCACCGCCGCGCTCAACGGAGTCACCTAGTGCAG”: 9240 fluorescence intensity (a.u.); “GTCGCTGGTCCTATGGTCCAATTGTATTTTCAGACAGTCCCGGAGTCACCTAGTGCAG”: 9940 fluorescence intensity (a.u.).
In the case of “CCACGCCTCCACCTCCGCCTCATTTGCTCCAGTTCCCGGACGGAGTCACCTAGTGCAG” it was 9630 fluorescence intensity (a.u.); in that of “AAACTGAAGATGTTTTTGTCGGTATTTGAGTATGTCATCCCGGAGTCACCTAGTGCAG”, 8120 fluorescence intensity (a.u.).
Take “ATCGCCTCCACCACCACGGTTCGGCTCGGCTCGGCTACTCCGGAGTCACCTAGTGCAG”: the binding signal is 8110 fluorescence intensity (a.u.).
In the case of “CTAAAAACTTGCTATATTGTTAACACTACTTGTTGTAAGTCGGAGTCACCTAGTGCAG” it was 8290 fluorescence intensity (a.u.).
With “TTTCCTCCTGGCCTTTCTTGGCCTCTGCATTTGCTCACCTCGGAGTCACCTAGTGCAG”, the binding signal was 12000 fluorescence intensity (a.u.).
With “CCACTTTGGCTATTCACCCTTTATTTATGTATAAAAAATACGGAGTCACCTAGTGCAG”, the binding signal is 8120 fluorescence intensity (a.u.).
As for “TCTATTTCGTCTCCGTCCTCTTTGGGCTGTGACATGTATACGGAGTCACCTAGTGCAG”, the binding signal was 8250 fluorescence intensity (a.u.).
Regarding “ACTTTACTACCAAATGTTAACTCGTGTTTTTTTGCCCATACGGAGTCACCTAGTGCAG”, the binding signal was 8110 fluorescence intensity (a.u.).
Take “TACTCTAACCCTCATCTCCTCTTTGCATTTCCGCCTCGTCCGGAGTCACCTAGTGCAG”: the binding signal was 9230 fluorescence intensity (a.u.).
Turning to “TGGTTGTTGTTATTATTGACTTGGTGTTGAATACCTTTCACGGAGTCACCTAGTGCAG”, the binding signal is 8880 fluorescence intensity (a.u.).
In the case of “TACCGTACTCCTATCTTTTTGAAACAGCCTCTTTTTTTGACGGAGTCACCTAGTGCAG”, the binding signal is 8340 fluorescence intensity (a.u.).
In the case of “TAAGACGAGTGGTCAAACGTTGGTTAAAAAGTCAACGGTGCGGAGTCACCTAGTGCAG”, the binding signal was 14800 fluorescence intensity (a.u.).
Next, “ACCTTAACTCGAAACCGATCTCGTTTACCACCTATCCAACCGGAGTCACCTAGTGCAG”: 8860 fluorescence intensity (a.u.); “CGGGGTTGTCTTCACCTGCGACGCGGTGGTGCACGGTGGGCGGAGTCACCTAGTGCAG”: 8990 fluorescence intensity (a.u.).
Next, “CTCGATCAGTTTGTTTCTCTTCCCTTAAATACCAATTAAACGGAGTCACCTAGTGCAG”: 8490 fluorescence intensity (a.u.); “TCACCGTCTCCCGCGACTACCGCGACATCCTCGCCTGCGGCGGAGTCACCTAGTGCAG”: 10400 fluorescence intensity (a.u.).
As for “GCCGTTGACTTTTTATTACATGTTTGACCGTTCGTCTTATCGGAGTCACCTAGTGCAG”, the binding signal is 62900 fluorescence intensity (a.u.).
In the case of “CGCCTCAATCACCAAATCGATTTCACATCATTCGTCTCTTCGGAGTCACCTAGTGCAG” it was 12100 fluorescence intensity (a.u.).
For “ACGGTAGGGGCATGGAAGGGATCAAATTGAAATTTCAGGGCGGAGTCACCTAGTGCAG”, the binding signal was 8580 fluorescence intensity (a.u.).
Regarding “TAGATATTTTCTATAATGTTTTATAACTATATTTTGATGTCGGAGTCACCTAGTGCAG”, the binding signal was 8150 fluorescence intensity (a.u.).
Consider “TCTTTTGATTTGGTATTCAGTTCCTCTTTCTTTCCGTTGTCGGAGTCACCTAGTGCAG”, for which the binding signal is 12200 fluorescence intensity (a.u.).
In the case of “ACTAGATCCATCATGGCTACTTTTTGACGTTGTTACTGCGCGGAGTCACCTAGTGCAG” it was 9210 fluorescence intensity (a.u.); in that of “CAAAGCATCACACACACACACACACCAAACTAATCAATTTCGGAGTCACCTAGTGCAG”, 8340 fluorescence intensity (a.u.).
Regarding “GAATCTGCCTCCGAAATTCATCGGCTCGATCTGTTTTAACCGGAGTCACCTAGTGCAG”, the binding signal was 10900 fluorescence intensity (a.u.).
Next, “TGGATTTGGCGGCGGCGGCGGCTTCGAGGGGAGGGGCTCTCGGAGTCACCTAGTGCAG”: 15300 fluorescence intensity (a.u.).
Regarding “TGTCATGCCAGGTTCTATCACATTGTCTAGTTTGCTTCCTCGGAGTCACCTAGTGCAG”, the binding signal is 10900 fluorescence intensity (a.u.).
Next, “ATTGTTGTTGTTGTGTATTAATCTCGCGCTTCTGCTATTACGGAGTCACCTAGTGCAG”: 15500 fluorescence intensity (a.u.); “AGTCTTGGGTGTAAACCTATCCACCAATTTTCGAATTTAGCGGAGTCACCTAGTGCAG”: 8220 fluorescence intensity (a.u.); “GGCGGCGGTGATTCGGGGATGCGGCGCGGCGGGGAGGAGGCGGAGTCACCTAGTGCAG”: 10100 fluorescence intensity (a.u.).
Next, “GCCGTGCCGCCACGTTCCACGCCAACCTCGCCGGCCGCGCCGGAGTCACCTAGTGCAG”: 10100 fluorescence intensity (a.u.).
Next, “GCTAGTTAATTTGCTCGCGCGAGCTAGGACCCTCCGTGGTCGGAGTCACCTAGTGCAG”: 8480 fluorescence intensity (a.u.); “TCCACCCCGGCCCGCGCCCGCGCCCTCTCGAGTTCCCACACGGAGTCACCTAGTGCAG”: 10900 fluorescence intensity (a.u.); “GATGTGTTACGTCGTATGCTGTGGTTGACCGATGGCCCTGCGGAGTCACCTAGTGCAG”: 10100 fluorescence intensity (a.u.).
“ATTTCCTTAACGTATGCCGAACACATCCATATACGCGTGACGGAGTCACCTAGTGCAG”: the binding signal is 9220 fluorescence intensity (a.u.).
In the case of “GATCTTGTGCACCTTACAAATTACATTGCCGACCATAAAACGGAGTCACCTAGTGCAG” it was 9320 fluorescence intensity (a.u.); in that of “AGATCCCGTGTTTAATCCCCAGCACGTTCACGGTTTCTCGCGGAGTCACCTAGTGCAG”, 11700 fluorescence intensity (a.u.).
Turning to “TTCTCCTCTTCTCGCGCGGCTCGTTATATTCTCGTCATCACGGAGTCACCTAGTGCAG”, the binding signal was 12000 fluorescence intensity (a.u.).
With “CCTCTCAGCTCCGCCGCCGCTGCCTCCTCCTCCTCCGTTCCGGAGTCACCTAGTGCAG”, the binding signal was 9070 fluorescence intensity (a.u.).
As to “GTTCTAACCATTCATTCCCTCTTTTCTATTTAATCCTAACCGGAGTCACCTAGTGCAG”, the binding signal is 9230 fluorescence intensity (a.u.).
As to “GATGCATACCAAAAATTTTCATGCTTTACCGTCTGACAACCGGAGTCACCTAGTGCAG”, the binding signal is 8220 fluorescence intensity (a.u.).
Turning to “TCTGGACTTCCACGTCACGTCCACAATTCCCATTTCACACCGGAGTCACCTAGTGCAG”, the binding signal is 11700 fluorescence intensity (a.u.).
Take “AGTGTTCTAGACTTACGGGTTACGGTTTTTTTTGTTAGAGCGGAGTCACCTAGTGCAG”: the binding signal was 8090 fluorescence intensity (a.u.).
As for “TAATGGCCTCTTCTTCTTCTTCTTCTTCTAGGTTCTCTGACGGAGTCACCTAGTGCAG”, the binding signal was 8700 fluorescence intensity (a.u.).
On to “TTTATGTACGGTGATATGTGTACGTTTGCTTCTTTCCTGTCGGAGTCACCTAGTGCAG”, for which the binding signal was 10500 fluorescence intensity (a.u.).
Take “CTCCTAACGCCATCCAATCTCTCTTCTCCCCGTCTCTTTCCGGAGTCACCTAGTGCAG”: the binding signal was 9930 fluorescence intensity (a.u.).
In the case of “TGATGGAGCAGATCATTTCTTTGTTGTTCCACATGATTTTCGGAGTCACCTAGTGCAG”, the binding signal is 10000 fluorescence intensity (a.u.).
In the case of “CCTTCCGTCGCAGCCAGCATTCTTCTCCTCTCTCCTCTCACGGAGTCACCTAGTGCAG” it was 8220 fluorescence intensity (a.u.); in that of “AATTCCTGCATTACTCGTGTTTTTTTCAAATGTCTTTTAACGGAGTCACCTAGTGCAG”, 11700 fluorescence intensity (a.u.); in that of “CTGACTGTACTTTTCCCTTAAGATTGGTCAAATTTGAGTCCGGAGTCACCTAGTGCAG”, 10900 fluorescence intensity (a.u.).
“TGTTGTGTGGTGTGAACGAGTCAGTCAATGCAGTCAACATCGGAGTCACCTAGTGCAG”: the binding signal is 9410 fluorescence intensity (a.u.).
